Source: PubChem BioAssay AID504786 (Drosophila RNAi Screening Center, 2011)
Test: 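Positive regulators of HIF-driven reporter output in Drosophila cells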 (primary screen). System: Drosophila S2 cells with a stable HIF luciferase reporter. Reagent: long dsRNA against Drosophila genes, about 0.2 µg dsRNA per well of a 384-well plate. Time to read-out: three days of knock-down, then 20 h of DFO before reading. Conditions: desferrioxamine (DFO) at 100 µM, an iron chelator that mimics hypoxia, for 20 h. Detection: 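HIF reporter luminescence in cells given 100 µM DFO for 20 h, using the mouse ldh-a hypoxia-response element, scored as per-plate z-scores; higher means greater loss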. Scale: z-score: higher = stronger loss of HIF reporter signal.
The screen tested about 21,000 reagents; this is an unselected part of those with a known target gene and a result. 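Primary screen; positive scores mean lost reporter signal, so the sign may be inverted from the usual convention.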 The numbers tell different reagents against one gene apart.

{"gene knocked down":"Sema2a","reagent":1,"z-score, replicate 1":-0.2,"z-score, replicate 2":-0.6}
{"gene knocked down":"CG5808","reagent":1,"z-score, replicate 1":-0.1,"z-score, replicate 2":0}
{"gene knocked down":"Polr1H","reagent":1,"z-score, replicate 1":-0.1,"z-score, replicate 2":0.5}
{"gene knocked down":"CG32733 (retired record)","reagent":1,"z-score, replicate 1":0.6,"z-score, replicate 2":0.4}
{"gene knocked down":"CG16957","reagent":1,"z-score, replicate 1":-0.3,"z-score, replicate 2":-0.6}
{"gene knocked down":"CG14963","reagent":1,"z-score, replicate 1":-0.3,"z-score, replicate 2":-0.5}
{"gene knocked down":"Tsf2","reagent":1,"z-score, replicate 1":-0.3,"z-score, replicate 2":0.1}
{"gene knocked down":"insc","reagent":1,"z-score, replicate 1":-0.3,"z-score, replicate 2":-0.2}
{"gene knocked down":"Sirt6","reagent":1,"z-score, replicate 1":-0.3,"z-score, replicate 2":0.2}
{"gene knocked down":"Sp7","reagent":1,"z-score, replicate 1":-0.5,"z-score, replicate 2":-0.8}
{"gene knocked down":"Mrp5","reagent":1,"z-score, replicate 1":-0.7,"z-score, replicate 2":0}
{"gene knocked down":"Mrp5","reagent":2,"z-score, replicate 1":-0.8,"z-score, replicate 2":-0.2}
{"gene knocked down":"Cox10","reagent":1,"z-score, replicate 1":0.3,"z-score, replicate 2":-0.1}
{"gene knocked down":"CG5265","reagent":1,"z-score, replicate 1":0.2,"z-score, replicate 2":0.2}
{"gene knocked down":"Mdr49","reagent":1,"z-score, replicate 1":0,"z-score, replicate 2":0.1}
{"gene knocked down":"COX6AL2","reagent":1,"z-score, replicate 1":-0.1,"z-score, replicate 2":0.4}

Already shown: 3 of the entries above.
{"gene knocked down":"Tsf2","reagent":1,"z-score, replicate 1":-0.3,"z-score, replicate 2":0.1}
{"gene knocked down":"insc","reagent":1,"z-score, replicate 1":-0.3,"z-score, replicate 2":-0.2}
{"gene knocked down":"Sirt6","reagent":1,"z-score, replicate 1":-0.3,"z-score, replicate 2":0.2}
